According to PMC4614863, “New Insights into the RNA-Binding and E3 Ubiquitin Ligase Activities of Roquins”:

Target: T1, RC3H2 stem-loop triple mutant Q244A,Y247A,R248E (Homo sapiens) (UniProt Q9HBD1)
T1 sequence (looked up): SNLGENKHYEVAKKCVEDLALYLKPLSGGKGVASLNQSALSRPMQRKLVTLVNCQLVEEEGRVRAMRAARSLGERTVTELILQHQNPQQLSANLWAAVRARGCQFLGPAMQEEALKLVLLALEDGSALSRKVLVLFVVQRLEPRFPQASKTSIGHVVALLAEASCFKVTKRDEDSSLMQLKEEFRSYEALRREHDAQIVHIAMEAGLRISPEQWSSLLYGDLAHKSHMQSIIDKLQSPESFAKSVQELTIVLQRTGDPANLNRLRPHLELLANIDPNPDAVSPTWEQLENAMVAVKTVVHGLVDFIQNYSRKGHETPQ
Test: ITC
Conditions: attributed to duplex form of Tnf23; ITC: 20 mM Tris-HCl pH 8.0, 150 mM NaCl, 1 mM TCEP, 25 C; 200-500 uM RNA injected into 15-30 uM protein, one-site model; recombinant protein; residues 87-404; protein details: His6-tag, removed by TEV where applicable

For “ACAUGUUUUCUGUGAAAACGGAG [Tnf23 CDE RNA, 23-nt]”, the Kd was 361 nM.

Construct, isoform or probe ends are uncertain for at least one entry. Where a protein sequence is shown, tags need not be part of it.
